The effect of the compound repeats well; differences between the knockouts mostly do not.
Test system: SKBR3
Test: relative cell number vs DMSO control (72 h) (% of DMSO); higher = less growth inhibition (more cells)
Method: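 QMAP-Seq: a pool of 5 breast cancer cell lines (ZR-75-1, SKBR3, HCC-38, MDA-MB-231, BT-20), each carrying 12 doxycycline-inducible Cas9 sgRNA perturbations (11 knockouts plus non-targeting sgNT), was treated with compounds for 72 h at four 10-fold doses (10 nM-10 uM or 1 nM-1 uM range). Barcodes were amplified and sequenced, and cell number was interpolated from 293T spike-in standard curves. The result is expressed as % of the median of DMSO wells. Two biological replicates.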

O=C(O)CC[C@H]1CC[C@@](c2cc(F)ccc2F)(S(=O)(=O)c2ccc(Cl)cc2)CC1 [MK0752]
Details	relative cell number
sgRNA knockout: sgATF3, 10 nM	154
sgRNA knockout: sgATF3, 100 nM	137
sgRNA knockout: sgATF3, 1000 nM	99.5
sgRNA knockout: sgATF3, 10000 nM	119
sgRNA knockout: sgATF4, 10 nM	146
sgRNA knockout: sgATF4, 100 nM	105
sgRNA knockout: sgATF4, 1000 nM	102
sgRNA knockout: sgATF4, 10000 nM	109
sgRNA knockout: sgATF6, 10 nM	119
sgRNA knockout: sgATF6, 100 nM	93.3
sgRNA knockout: sgATF6, 1000 nM	101
sgRNA knockout: sgATF6, 10000 nM	98.5
sgRNA knockout: sgATG7, 10 nM	177
sgRNA knockout: sgATG7, 100 nM	108.8
sgRNA knockout: sgATG7, 1000 nM	111
sgRNA knockout: sgATG7, 10000 nM	140
sgRNA knockout: sgERN1, 10 nM	143
sgRNA knockout: sgERN1, 100 nM	110
sgRNA knockout: sgERN1, 1000 nM	121
sgRNA knockout: sgERN1, 10000 nM	132
sgRNA knockout: sgHSF1, 10 nM	139
sgRNA knockout: sgHSF1, 100 nM	128
sgRNA knockout: sgHSF1, 1000 nM	96.6
sgRNA knockout: sgHSF1, 10000 nM	114.4
sgRNA knockout: sgHSF2, 10 nM	122
sgRNA knockout: sgHSF2, 100 nM	123
sgRNA knockout: sgHSF2, 1000 nM	116
sgRNA knockout: sgHSF2, 10000 nM	117
sgRNA knockout: sgKEAP1, 10 nM	121
sgRNA knockout: sgKEAP1, 100 nM	112
sgRNA knockout: sgKEAP1, 1000 nM	106
sgRNA knockout: sgKEAP1, 10000 nM	104
sgRNA knockout: sgNFE2L2, 10 nM	186
sgRNA knockout: sgNFE2L2, 100 nM	125
sgRNA knockout: sgNFE2L2, 1000 nM	113
sgRNA knockout: sgNFE2L2, 10000 nM	131
sgRNA knockout: sgSLC35F2, 10 nM	150
sgRNA knockout: sgSLC35F2, 100 nM	124
sgRNA knockout: sgSLC35F2, 1000 nM	128
sgRNA knockout: sgSLC35F2, 10000 nM	116
sgRNA knockout: sgXBP1, 10 nM	142
sgRNA knockout: sgXBP1, 100 nM	116
sgRNA knockout: sgXBP1, 1000 nM	135
sgRNA knockout: sgXBP1, 10000 nM	141

COc1cc(CCc2cc(NC(=O)c3ccc(N4CC(C)NC(C)C4)cc3)n[nH]2)cc(OC)c1 (configuration not stated) [AZD4547]
Details	relative cell number
sgRNA knockout: sgATF3, 10 nM	110
sgRNA knockout: sgATF3, 100 nM	86.1
sgRNA knockout: sgATF3, 1000 nM	103.7
sgRNA knockout: sgATF3, 10000 nM	39.4
sgRNA knockout: sgATF4, 10 nM	85.1
sgRNA knockout: sgATF4, 100 nM	100
sgRNA knockout: sgATF4, 1000 nM	82.5
sgRNA knockout: sgATF4, 10000 nM	47.7
sgRNA knockout: sgATF6, 10 nM	73.4
sgRNA knockout: sgATF6, 100 nM	85.4
sgRNA knockout: sgATF6, 1000 nM	90.5
sgRNA knockout: sgATF6, 10000 nM	42.9
sgRNA knockout: sgATG7, 10 nM	85.9
sgRNA knockout: sgATG7, 100 nM	97.2
sgRNA knockout: sgATG7, 1000 nM	98
sgRNA knockout: sgATG7, 10000 nM	46.4
sgRNA knockout: sgERN1, 10 nM	84.4
sgRNA knockout: sgERN1, 100 nM	79.1
sgRNA knockout: sgERN1, 1000 nM	105
sgRNA knockout: sgERN1, 10000 nM	47.4
sgRNA knockout: sgHSF1, 10 nM	68.8
sgRNA knockout: sgHSF1, 100 nM	95.1
sgRNA knockout: sgHSF1, 1000 nM	83.4
sgRNA knockout: sgHSF1, 10000 nM	42.2
sgRNA knockout: sgHSF2, 10 nM	89.8
sgRNA knockout: sgHSF2, 100 nM	81.5
sgRNA knockout: sgHSF2, 1000 nM	89.8
sgRNA knockout: sgHSF2, 10000 nM	60.91
sgRNA knockout: sgKEAP1, 10 nM	73.7
sgRNA knockout: sgKEAP1, 100 nM	84.3
sgRNA knockout: sgKEAP1, 1000 nM	87.5
sgRNA knockout: sgKEAP1, 10000 nM	50.2
sgRNA knockout: sgNFE2L2, 10 nM	87.3
sgRNA knockout: sgNFE2L2, 100 nM	80
sgRNA knockout: sgNFE2L2, 1000 nM	99.5
sgRNA knockout: sgNFE2L2, 10000 nM	42.6
sgRNA knockout: sgSLC35F2, 10 nM	87.8
sgRNA knockout: sgSLC35F2, 100 nM	74.1
sgRNA knockout: sgSLC35F2, 1000 nM	105
sgRNA knockout: sgSLC35F2, 10000 nM	48.9
sgRNA knockout: sgXBP1, 10 nM	85.1
sgRNA knockout: sgXBP1, 100 nM	70.4
sgRNA knockout: sgXBP1, 1000 nM	95.8
sgRNA knockout: sgXBP1, 10000 nM	51.4

CC(C)n1c(/C=C/C(O)CC(O)CC(=O)O)c(-c2ccc(F)cc2)c2ccccc21 (configuration not stated) [Fluvastatin]
Details	relative cell number
sgRNA knockout: sgATF3, 10 nM	85.7
sgRNA knockout: sgATF3, 100 nM	96.2
sgRNA knockout: sgATF3, 1000 nM	83.3
sgRNA knockout: sgATF3, 10000 nM	50.6
sgRNA knockout: sgATF4, 10 nM	101
sgRNA knockout: sgATF4, 100 nM	103
sgRNA knockout: sgATF4, 1000 nM	79.8
sgRNA knockout: sgATF4, 10000 nM	54.9
sgRNA knockout: sgATF6, 10 nM	84.4
sgRNA knockout: sgATF6, 100 nM	84.01
sgRNA knockout: sgATF6, 1000 nM	74.1
sgRNA knockout: sgATF6, 10000 nM	49.1
sgRNA knockout: sgATG7, 10 nM	83.8
sgRNA knockout: sgATG7, 100 nM	101
sgRNA knockout: sgATG7, 1000 nM	94.9
sgRNA knockout: sgATG7, 10000 nM	60.9
sgRNA knockout: sgERN1, 10 nM	108
sgRNA knockout: sgERN1, 100 nM	128
sgRNA knockout: sgERN1, 1000 nM	85.2
sgRNA knockout: sgERN1, 10000 nM	60
sgRNA knockout: sgHSF1, 10 nM	86.3
sgRNA knockout: sgHSF1, 100 nM	106
sgRNA knockout: sgHSF1, 1000 nM	83
sgRNA knockout: sgHSF1, 10000 nM	63.3
sgRNA knockout: sgHSF2, 10 nM	84.1
sgRNA knockout: sgHSF2, 100 nM	109
sgRNA knockout: sgHSF2, 1000 nM	101
sgRNA knockout: sgHSF2, 10000 nM	60.8
sgRNA knockout: sgKEAP1, 10 nM	76
sgRNA knockout: sgKEAP1, 100 nM	74.3
sgRNA knockout: sgKEAP1, 1000 nM	75.4
sgRNA knockout: sgKEAP1, 10000 nM	54.7
sgRNA knockout: sgNFE2L2, 10 nM	90.7
sgRNA knockout: sgNFE2L2, 100 nM	99.5
sgRNA knockout: sgNFE2L2, 1000 nM	85.5
sgRNA knockout: sgNFE2L2, 10000 nM	47.4
sgRNA knockout: sgSLC35F2, 10 nM	67.4
sgRNA knockout: sgSLC35F2, 100 nM	90.4
sgRNA knockout: sgSLC35F2, 1000 nM	101
sgRNA knockout: sgSLC35F2, 10000 nM	46.6
sgRNA knockout: sgXBP1, 10 nM	67.9
sgRNA knockout: sgXBP1, 100 nM	83.9
sgRNA knockout: sgXBP1, 1000 nM	81.8
sgRNA knockout: sgXBP1, 10000 nM	52
